Results are given in words; binding and its absence hold for the method and conditions named. In cells and extracts the contact can be indirect. Some results given as binding are weak or reduced against the parent protein; the word gives no strength.

The target in this assay is T1, ATG13 (human (endogenous in U266)) (UniProt O75143).
T1 sequence: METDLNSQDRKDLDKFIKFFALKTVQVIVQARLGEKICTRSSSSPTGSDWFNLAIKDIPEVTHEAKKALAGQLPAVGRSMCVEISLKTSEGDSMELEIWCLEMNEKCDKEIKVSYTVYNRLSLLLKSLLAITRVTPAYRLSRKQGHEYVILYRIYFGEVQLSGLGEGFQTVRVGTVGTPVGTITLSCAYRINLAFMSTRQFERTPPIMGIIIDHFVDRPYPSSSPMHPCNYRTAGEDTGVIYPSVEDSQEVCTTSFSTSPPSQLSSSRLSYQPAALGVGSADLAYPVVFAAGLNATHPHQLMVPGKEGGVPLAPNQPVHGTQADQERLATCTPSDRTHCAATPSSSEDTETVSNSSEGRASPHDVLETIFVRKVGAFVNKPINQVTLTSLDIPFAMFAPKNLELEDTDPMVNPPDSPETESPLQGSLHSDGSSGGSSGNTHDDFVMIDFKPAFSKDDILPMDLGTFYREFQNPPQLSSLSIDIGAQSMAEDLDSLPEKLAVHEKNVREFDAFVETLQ
Description: co-IP; parental U266 lysate (5x10^6 cells, 2 mg total protein) in RIPA buffer with protease inhibitors, precleared with protein G agarose, 1 ug ATG13 antibody 1 h at 4 °C, beads overnight; pellet immunoblotted. For orientation: In western blotting, separated proteins are transferred to a membrane and probed.

B1: Unc-51 Like Kinase 3 (ULK3) (enzyme, UniProt Q6PHR2 1-472)
chain: MAGPGWGPPRLDGFILTERLGSGTYATVYKAYAKKDTREVVAIKCVAKKSLNKASVENLLTEIEILKGIRHPHIVQLKDFQWDSDNIYLIMEFCAGGDLSRFIHTRRILPEKVARVFMQQLASALQFLHERNISHLDLKPQNILLSSLEKPHLKLADFGFAQHMSPWDEKHVLRGSPLYMAPEMVCQRQYDARVDLWSMGVILYEALFGQPPFASRSFSELEEKIRSNRVIELPLRPLLSRDCRDLLQRLLERDPSRRISFQDFFAHPWVDLEHMPSGESLGRATALVVQAVKKDQEGDSAAALSLYCKALDFFVPALHYEVDAQRKEAIKAKVGQYVSRAEELKAIVSSSNQALLRQGTSARDLLREMARDKPRLLAALEVASAAMAKEEAAGGEQDALDLYQHSLGELLLLLAAEPPGRRRELLHTEVQNLMARAEYLKEQVKMRESRWEADTLDKEGLSESVRSSCTLQ
Turning to B1, the binding entry is on record as “binds”.

For the origin of these results see publication PMC12363935, “Unc-51 Like Kinase 3 (ULK3) is essential for autophagy and cell survival in multiple myeloma” (Research Square, 2025).
